Results are given in words; binding and its absence hold for the method and conditions named. Some results given as binding are weak or reduced against the parent protein; the word gives no strength.
Biological target: Tom22 with a hexahistidine tag at the C-terminus (Neurospora crassa) (UniProt Q07335)
Assay: co-purification (Ni-NTA affinity and anion exchange chromatography, SDS-PAGE with Coomassie staining); mitochondria solubilised in 1% n-dodecyl-β-D-maltoside, 20% glycerol, 300 mM NaCl, 20 mM imidazole, 20 mM Tris-HCl pH 8.5; His-tagged Tom22 held on Ni-NTA, eluted with 300 mM imidazole; then Resource Q, 0-500 mM KCl

By UniProt entry, the sequences of proteins in these tests, tags left out.
UniProt Q07335: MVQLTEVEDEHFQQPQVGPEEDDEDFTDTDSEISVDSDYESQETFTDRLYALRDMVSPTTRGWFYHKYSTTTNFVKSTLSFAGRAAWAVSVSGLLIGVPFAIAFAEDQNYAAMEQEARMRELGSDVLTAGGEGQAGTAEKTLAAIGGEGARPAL

B1: Tom6 (protein, UniProt Q1K6I2 1-60)
chain: MPSAKYIERPGGSRKSKGFIRSTYDSLTSSENASVVRSIAFFGAAVAFLSSSWGEMLVVQ
binding: binds

Source: PMC9114391
